Experimental data reported in patent US6471960B1, “Methods for the prevention or treatment of alzheimer's disease” (Rutgers, the State University, priority 1994, dated 2002).
Not every detail of the peptide structures is certain; ends, links or a residue may be inferred.

By UniProt entry, the sequences of proteins in these tests, tags left out. Residues count along the entry.
UniProt P00750, 36-562: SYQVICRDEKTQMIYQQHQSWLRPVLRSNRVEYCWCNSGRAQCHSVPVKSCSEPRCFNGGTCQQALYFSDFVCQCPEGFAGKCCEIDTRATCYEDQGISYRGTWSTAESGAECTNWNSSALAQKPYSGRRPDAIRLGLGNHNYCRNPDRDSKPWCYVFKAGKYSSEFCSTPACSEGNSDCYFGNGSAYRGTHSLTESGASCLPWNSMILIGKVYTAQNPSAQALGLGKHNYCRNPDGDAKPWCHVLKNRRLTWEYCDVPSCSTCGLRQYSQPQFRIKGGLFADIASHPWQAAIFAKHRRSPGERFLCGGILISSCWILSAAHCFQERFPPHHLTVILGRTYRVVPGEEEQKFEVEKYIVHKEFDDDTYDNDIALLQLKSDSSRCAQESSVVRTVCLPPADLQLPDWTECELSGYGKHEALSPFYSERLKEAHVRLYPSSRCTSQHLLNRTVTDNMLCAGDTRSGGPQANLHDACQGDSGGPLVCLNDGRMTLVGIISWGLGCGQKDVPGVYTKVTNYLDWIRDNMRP

Molecular target: tPA (Homo sapiens, UniProt P00750)
Assay: Plasminogen activation by t-PA, initial velocities under steady state conditions (S-2251, Lineweaver-Burk)
Type: biochemical
Parameters: purchased Genentech, Inc. Activase
Conditions: kcat of t-PA with the stimulator present, unaggregated peptides

Question: With CC(C)C[C@H](NC(=O)[C@H](CCCCN)NC(=O)[C@H](CCC(N)=O)NC(=O)[C@H](Cc1c[nH]cn1)NC(=O)[C@H](Cc1c[nH]cn1)NC(=O)[C@@H](NC(=O)[C@H](CCC(=O)O)NC(=O)[C@H](Cc1ccc(O)cc1)NC(=O)CNC(=O)[C@H](CO)NC(=O)[C@H](CC(=O)O)NC(=O)[C@H](Cc1c[nH]cn1)NC(=O)[C@H](CCCNC(=N)N)NC(=O)[C@H](Cc1ccccc1)NC(=O)[C@H](CCC(=O)O)NC(=O)[C@H](C)NC(=O)[C@@H](N)CC(=O)O)C(C)C)C(=O)N[C@H](C(=O)N[C@@H](Cc1ccccc1)C(=O)N[C@@H](Cc1ccccc1)C(=O)N[C@@H](C)C(=O)N[C@@H](CCC(N)=O)C(=O)N[C@@H](CC(=O)O)C(=O)N[C@H](C(=O)NCC(=O)N[C@@H](CO)C(=O)N[C@@H](CC(N)=O)C(=O)N[C@@H](CCCCN)C(=O)O)C(C)C)C(C)C [β-Amyloid Peptides 1-28 Dutch] as the molecule, how does the kcat read?
Answer: Its kcat is 0.058 s⁻¹.
